Measured values published in US7358088B2, “Peptides and compositions which modulate apoptosis” (ImmunoGen, Inc., priority 1995, dated 2008).
Not every detail of the peptide structures is certain; ends, links or a residue may be inferred. Ends that are not written are not given here.

Protein sequences, listed by entry. Tags and fused reporters are not part of them.
UniProt Q07817, whole entry: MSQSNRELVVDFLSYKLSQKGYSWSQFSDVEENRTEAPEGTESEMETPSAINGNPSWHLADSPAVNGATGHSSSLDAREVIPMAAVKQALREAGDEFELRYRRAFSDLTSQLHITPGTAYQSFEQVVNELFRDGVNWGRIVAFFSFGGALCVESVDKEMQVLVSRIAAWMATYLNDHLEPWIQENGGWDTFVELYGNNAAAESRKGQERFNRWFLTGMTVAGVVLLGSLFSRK

What was measured:
[1] = molecular target: T1, Bcl-xL/Bak GD domain interaction (Homo sapiens, UniProt Q07817); assay: High through-put screening assay 2: GST-Bcl-xL binding to biotinylated Bak GD peptide on neutravidin wells, ELISA; conditions: competing peptide added, ELISA signal
T1 construct: made in house; host or cells: E. coli
Protocol: An assay was developed to screen for compounds that block the interaction between the Bcl-2 homologs, Bcl-xL and Bak. A synthetic peptide corresponding to the Bak GD binding domain ([…] [SEQ ID NO: 35]) was biotinylated and bound to wells coated with neutravidin. […] Peptides encompassing the GD domain from various Bcl-2 family members were tested for their ability to block GD domain-mediated interactions in this assay. Peptides tested: Bcl-w [SEQ ID NO: 39] […] ([…]), Bak [SEQ ID NO: 36]([…]), Bak-15 [SEQ ID NO: 37] ([…]), Bak-15L78A [SEQ ID NO: 38] ([…]), control (no peptide).
In a modification of the high through-put screening assay 1 described herein, wells are coated with an avidin derivative, to which a biotinylated peptide/protein is bound. A GST-fusion protein that can interact with the biotinylated peptide/protein is added in the presence or absence of test compounds. The plates are incubated and then unbound GST-fusion protein is removed by washing. The amount of GST-fusion protein specifically bound to the tethered peptide/protein is determined by ELISA using an anti-GST antibody conjugated to horse radish peroxidase. Compounds which block the interaction between the biotinylated peptide/protein and the GST-fusion protein cause a decrease in the ELISA signal. […]

HeLa cells = assay: Microinjection assay, protection from anti-Fas and cycloheximide induced death; assay type: cell-based; conditions: peptide 0.5 mg/ml co-injected with GST-Bcl-xL 0.3 mg/ml, anti-Fas and cycloheximide 18 hours
Protocol: HeLa cells (>100 cells/condition) were microinjected without (buffer) or with GST-Bcl-xL (0.3 mg/ml) in the absence or presence of GD domain peptides (0.5 mg/ml) and the recovery of live injected cells was determined after treatment with anti-Fas and cycloheximide for 18 hours. FITC-dextran was coinjected as a marker. A 15-amino acid Bak GD domain peptide (Bak-15; residues 73-87; […] [SEQ ID NO: 37]) and a mutant Bak GD domain peptide with an alanine substitution at leucine 78 (Bak-15L78A; […] [SEQ ID NO: 38]) were tested.
A cell-based microinjection assay is provided for the identification of agents that antagonize GD domain-mediated interactions and inhibit the cell death suppression activity of Bcl-xL and/or Bcl-2. One or preferably more than one cells are microinjected with a death suppressor protein, such as Bcl-xL or Bcl-2, which protects the cells from induction of cell death by an apoptosis-inducing agent, in the presence of a test compound, composition or agent. […]
Microinjection procedure: HeLa cells were plated in complete DMEM in 60 mm dishes at 2.4×10^5 cells per dish. […] Following injection, the cells were returned to the incubator and after 1 hour the number of injected cells was determined by fluorescence microscopy. Cells were then treated with anti-Fas mAb (7C11) and cycloheximide ([…]) and the recovery of injected cells remaining after 18 hours was determined.

[2] = tested on: MRC5 human diploid fibroblasts; assay: Microinjection assay in MRC5 fibroblasts, anti-Fas-induced death; assay type: cell-based; conditions: co-injection of peptide

Sequence: QVGRQAAIIGDDINR [Bak-15L78A]
- inhibition of Bcl-xL/Bak GD domain binding [1]: did not block binding
- inhibition of Bcl-xL-mediated protection from Fas-induced death (HeLa cells): did not block Bcl-xL-mediated protection from Fas-induced death
- inhibition of protection from anti-Fas-induced death by microinjected Bcl-xL [2]: not
